Laboratory results taken from patent publication US10899736B2, “Processes and intermediates for making a JAK inhibitor” (Incyte Corporation, priority 2018, dated 2021).
Some of these results come from one statement about several compounds together.

Amino acid sequences for entries named in this document (tags omitted). Residues count along the entry.
UniProt O60674, 828-1132: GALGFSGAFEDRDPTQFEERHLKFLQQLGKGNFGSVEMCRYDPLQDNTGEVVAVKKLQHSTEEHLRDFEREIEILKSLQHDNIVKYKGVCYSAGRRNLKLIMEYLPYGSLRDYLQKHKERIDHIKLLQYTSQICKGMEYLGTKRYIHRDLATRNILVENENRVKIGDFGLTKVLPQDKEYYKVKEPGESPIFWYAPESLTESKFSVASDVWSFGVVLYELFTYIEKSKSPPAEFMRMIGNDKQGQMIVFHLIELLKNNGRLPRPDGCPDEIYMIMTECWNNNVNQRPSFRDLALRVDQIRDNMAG

Molecular target: T1, human JAK2 (a.a. 828-1132) catalytic domain (Homo sapiens, UniProt O60674)
T1 construct: JAK2 (a.a. 828-1132); His tag (N); made in house; host or cells: insect cells (baculovirus)
Test: In vitro JAK kinase assay (HTRF, phosphorylation of biotinylated peptide)
Assay type: biochemical
Conditions: ratio of IC50s, measured at 1 mM ATP

`N#CCC1(n2cc(-c3ncnc4[nH]ccc34)cn2)CN(C2CCN(C(=O)c3ccnc(C(F)(F)F)c3F)CC2)C1` [Formula I, {1-{1-[3-fluoro-2-(trifluoromethyl)isonicotinoyl]piperidin-4-yl}-3-[4-(7H-pyrrolo[2,3-d]pyrimidin-4-yl)-1H-pyrazol-1-yl]azetidin-3-yl}acetonitrile] was tested, and the JAK2/JAK1 ratio was > 10.
